Measured values as given in patent US20260317367A1, “SALTS INCLUDING CRYSTALLINE SALTS OF 25-HYDROXY-CHOLEST-5-EN-3-SULFATE AND METHODS FOR PREPARING SAME” (Durect Corporation, priority 2022, published 2026).
Where a name gives a salt, the structure may show the parent alone. The source gives many values for each of these; only a part stands here.

Experiment: Solubility of 25HC3S salts after one day at room temperature (HPLC, as free acid)
Type: physicochemical
Details: 1440 min; for Solubility in ACN: acetonitrile; for Solubility in EtOH: ethanol; for Solubility in EtOH / Solubility in MeOH: ≥ = did not reach saturation; for Solubility in IPA: isopropyl alcohol; for Solubility in MeOH: methanol; for Solubility in H2O: water
Description: These fluids were prepared per the instruction listed by Biorelevant (Biorelevant.com). Each buffer concentrate was diluted with water and mixed well. FaSSIF, FeSSIF, FaSSGF powder was added to each buffer and mixed to completely dissolve the powder. Buffers were stored at room temperature and used within 48 hours of preparation.
25HC3S salts were weighed in 8 mL or 4 mL glass vials with Teflon coated screw caps. Aliquots of each solvent were added to each sample and vortexed for about one minute until excess solid remained. Samples were placed on shaker at room temperature with 210 motion per minute shaking.
After one day, samples were pulled and checked if excess solid was present. About 1.5 mL aliquot of each sample was centrifuged at 12000 rpm for 12 to 15 minutes. […] Aliquots of the top clear solution of each centrifuged sample in MeOH, EtOH, IPA and ACN were diluted with diluent (water:MeOH 95:5) and assayed by HPLC. Samples of the salts in aqueous media were assayed by HPLC without dilution.
All solubility sample solutions of 25HC3S salts were determined using HPLC. A linear standard curve was constructed using standards with concentration between 11 μg/mL to 1.5 mg/mL as free acid forcing the curve to origin. Solubilities are reported as mg/mL free acid 25HC3S. Detection limit (LOD) of the HPLC method was calculated as 0.0007 mg/mL.

[1] = ND = not detected, detection limit 0.7 μg/mL, listed as 25HC3S t-butylammonium
[2] = listed as 25HC3S t-butylammonium
[3] = ND = not detected, detection limit 0.7 μg/mL, listed as 25HC3S diethanolamine
[4] = listed as 25HC3S diethanolamine
[5] = ND = not detected, detection limit 0.7 μg/mL, listed as 25HC3S tromethammonium
[6] = listed as 25HC3S tromethammonium
[7] = ND = not detected, detection limit 0.7 μg/mL, listed as 25HC3S meglumine
[8] = ND = not detected, detection limit 0.7 μg/mL, listed as 25HC3S magnesium
[9] = ND = not detected, detection limit 0.7 μg/mL, listed as 25HC3S potassium
[10] = listed as 25HC3S hydroxyethylpyrrolidinium
[11] = ND = not detected, detection limit 0.7 μg/mL, listed as 25HC3S calcium

## CC(CCCC(C)(C)O)C1CCC2C3CC=C4CC(OS(=O)(=O)O)CCC4(C)C3CCC12C (stereo not shown) [Salt #12]
0.9% NaCl, ND = not detected, detection limit 0.7 μg/mL, listed as 25HC3S t-butylammonium
  Solubility in 0.9% NaCl: 3 µg/mL
[1]
  Solubility in 5% Dextrose: 26 µg/mL
  Solubility in FaSSGF: 28 µg/mL
  Solubility in H2O: 29 µg/mL
[2]
  Solubility in FaSSIF: 162 µg/mL
  Solubility in FeSSIF: 787 µg/mL
  Solubility in ACN: 100 µg/mL
  Solubility in EtOH: 15000 µg/mL
  Solubility in IPA: 3300 µg/mL
  Solubility in MeOH: 39600 µg/mL

## CC(CCCC(C)(C)O)C1CCC2C3CC=C4CC(OS(=O)(=O)O)CCC4(C)C3CCC12C (stereo not shown) [Salt #10]
[3]
  Solubility in 5% Dextrose: 69 µg/mL
  Solubility in FaSSGF: 11 µg/mL
  Solubility in H2O: 83 µg/mL
[4]
  Solubility in FaSSIF: 157 µg/mL
  Solubility in FeSSIF: 858 µg/mL
  Solubility in ACN: 200 µg/mL
  Solubility in EtOH: 19400 µg/mL
  Solubility in IPA: 3700 µg/mL
  Solubility in MeOH: ≥64200 µg/mL

## CC(CCCC(C)(C)O)C1CCC2C3CC=C4CC(OS(=O)(=O)O)CCC4(C)C3CCC12C (stereo not shown) [Salt #8]
[5]
  Solubility in 5% Dextrose: 130 µg/mL
  Solubility in FaSSGF: 11 µg/mL
  Solubility in H2O: 120 µg/mL
[6]
  Solubility in FaSSIF: 138 µg/mL
  Solubility in FeSSIF: 722 µg/mL
  Solubility in ACN: 100 µg/mL
  Solubility in EtOH: 18100 µg/mL
  Solubility in IPA: 3200 µg/mL
  Solubility in MeOH: 39600 µg/mL

## CC(CCCC(C)(C)O)C1CCC2C3CC=C4CC(OS(=O)(=O)O)CCC4(C)C3CCC12C (stereo not shown) [Salt #7]
[7]
  Solubility in 5% Dextrose: 113 µg/mL
  Solubility in FaSSGF: 48 µg/mL
  Solubility in H2O: 158 µg/mL
Listed as 25HC3S meglumine
  Solubility in FaSSIF: 134 µg/mL
  Solubility in FeSSIF: 653 µg/mL
  Solubility in ACN: 40 µg/mL
  Solubility in EtOH: 2900 µg/mL
  Solubility in IPA: 400 µg/mL
  Solubility in MeOH: 18900 µg/mL

## CC(CCCC(C)(C)O)C1CCC2C3CC=C4CC(OS(=O)(=O)O)CCC4(C)C3CCC12C (stereo not shown) [Salt #13]
[8]
  Solubility in 5% Dextrose: 8 µg/mL
  Solubility in H2O: 6 µg/mL
Listed as 25HC3S magnesium
  Solubility in FaSSIF: 96 µg/mL
  Solubility in FeSSIF: 479 µg/mL
  Solubility in ACN: 10 µg/mL
  Solubility in EtOH: ≥26700 µg/mL
  Solubility in IPA: 2500 µg/mL
  Solubility in MeOH: ≥69000 µg/mL

## CC(CCCC(C)(C)O)C1CCC2C3CC=C4CC(OS(=O)(=O)O)CCC4(C)C3CCC12C (stereo not shown) [Salt #1]
[9]
  Solubility in 5% Dextrose: 35 µg/mL
  Solubility in FaSSGF: 2 µg/mL
  Solubility in H2O: 38 µg/mL
Listed as 25HC3S potassium
  Solubility in FaSSIF: 79 µg/mL
  Solubility in FeSSIF: 521 µg/mL
  Solubility in ACN: 100 µg/mL
  Solubility in EtOH: 900 µg/mL
  Solubility in IPA: 200 µg/mL
  Solubility in MeOH: 5100 µg/mL

## CC(CCCC(C)(C)O)C1CCC2C3CC=C4CC(OS(=O)(=O)O)CCC4(C)C3CCC12C (stereo not shown) [Salt #9]
Listed as 25HC3S benzathine
  Solubility in FaSSIF: 4 µg/mL
  Solubility in FeSSIF: 25 µg/mL
  Solubility in ACN: 30 µg/mL
  Solubility in EtOH: 70 µg/mL
  Solubility in IPA: 30 µg/mL
  Solubility in MeOH: 200 µg/mL
ND = not detected, detection limit 0.7 μg/mL, listed as 25HC3S benzathine
  Solubility in H2O: 5 µg/mL

## CC(CCCC(C)(C)O)C1CCC2C3CC=C4CC(OS(=O)(=O)O)CCC4(C)C3CCC12C (stereo not shown) [Salt #6]
[10]
  Solubility in FeSSIF: 857 µg/mL
  Solubility in EtOH: ≥15700 µg/mL
  Solubility in MeOH: ≥48200 µg/mL

## CC(CCCC(C)(C)O)C1CCC2C3CC=C4CC(OS(=O)(=O)O)CCC4(C)C3CCC12C (stereo not shown) [Salt #2]
[11]
  Solubility in 5% Dextrose: 5 µg/mL
  Solubility in FaSSGF: 5 µg/mL
  Solubility in H2O: 6 µg/mL
Listed as 25HC3S calcium
  Solubility in FaSSIF: 152 µg/mL
  Solubility in FeSSIF: 629 µg/mL
  Solubility in ACN: 4 µg/mL
  Solubility in EtOH: 1000 µg/mL
  Solubility in IPA: 20 µg/mL
  Solubility in MeOH: 27400 µg/mL
